Data from PMC9742255.
Results are given in words; binding and its absence hold for the method and conditions named. In cells and extracts the contact can be indirect. Some results given as binding are weak or reduced against the parent protein; the word gives no strength.

Amino acid sequences for entries named in this document (tags omitted).
UniProt P17026: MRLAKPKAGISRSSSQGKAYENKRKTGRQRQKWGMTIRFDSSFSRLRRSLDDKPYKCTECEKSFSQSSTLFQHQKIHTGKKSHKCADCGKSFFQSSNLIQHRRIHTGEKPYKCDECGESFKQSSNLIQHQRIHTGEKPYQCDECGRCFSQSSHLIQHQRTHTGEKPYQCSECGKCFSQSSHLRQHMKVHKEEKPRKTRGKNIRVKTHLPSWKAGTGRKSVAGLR
UniProt O15379: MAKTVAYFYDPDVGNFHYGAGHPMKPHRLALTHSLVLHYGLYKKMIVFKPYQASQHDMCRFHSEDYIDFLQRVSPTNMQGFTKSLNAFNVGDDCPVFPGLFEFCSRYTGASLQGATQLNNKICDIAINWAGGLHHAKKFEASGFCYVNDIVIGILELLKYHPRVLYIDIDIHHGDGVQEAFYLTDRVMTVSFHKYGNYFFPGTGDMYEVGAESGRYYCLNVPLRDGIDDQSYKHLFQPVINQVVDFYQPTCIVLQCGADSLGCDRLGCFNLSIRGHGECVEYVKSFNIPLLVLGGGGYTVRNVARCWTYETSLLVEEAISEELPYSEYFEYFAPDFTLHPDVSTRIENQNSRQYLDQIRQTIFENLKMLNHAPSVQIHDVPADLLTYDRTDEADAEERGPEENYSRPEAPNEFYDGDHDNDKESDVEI

Target: ZNF22 (human (endogenous in hCMEC/D3)) (UniProt P17026)
Experiment: co-IP; endogenous proteins in cell lysate; protein A/G-MagBeads coupled with anti-ZNF22 and anti-HDAC3 antibodies overnight at 4°C; non-specific IgG as control; Western blot

binding: binds
Substance: HDAC3 (from UniProt O15379 1-428) (enzyme)
